# In PubChem BioAssay (NCATS):
# The shares of active, inactive and inconclusive entries below differ from those in the screen. Potencies beside an inconclusive call are fits to weak or partial responses and may not hold up. Active and inactive are the calls of the source. The call rests on the fitted dose curve; in most records, active means well fitted cell-killing curve with a large enough effect; inconclusive means small, poorly fitted or top-dose-only effect; inactive means flat fitted curve, though single readings scatter.
# Assay: Identifying Small Molecule Inhibitors of Pancreatic Cancer Stem Cells (SN12C, Adherent) (AID 1259358);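 further: cell survival measured after 48 h of compound exposure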
# Settings: viability/growth inhibition; series mostly up to 46.1 µM; viability (percent of control): at the top concentration
# Text: Progenitor-like cancer cells, often referred to as cancer stem cells (CSC), are believed to be the drivers of therapeutic resistance and rapid recurrence. CSCs are postulated to reside in specific niches characterized by low oxygen tension, limited nutrient supply, and high redox load. Selectively targeting CSC, alone or in combination with cytotoxic agents, as a means to produce durable remissions is an appealing concept. Modeling these cells in in vitro setting is an important step in finding new therapies and/or targets. Multiple reports highlight that forcing cells in culture into 3-dimensionaly architectures (spheroids) re-establishes key progenitor-like transcriptional signatures. Pancreatic cancer is among the diseases with the most dismal outlook which is driven, largely, by recurance following front-line therapies. […] In hopes of deriving new insight into the targeting of these pancreatic CSCs we examined three established pancreatic cancer cell lines in cytotoxicity assays versus a collection of approved and investigational drugs. Importantly, we screened these lines as traditional monolayer (2D) and spheroid (3D) formats to gain an appreciation of agents with differential activity.
# Multicellular tumor spheroids from Panc1, MiaPaCa-2, and the primary low-passage tissue culture line SB.06 were seeded in stem cell media (SCM) in nonadherent 6-well plates coated with hydrogel (Corning Life Sciences, Chelmsford, Mass) and pancreatic spheres generated for 14 days before screening. Cells were seeded into 1536-well solid-bottom white tissue culture treated Greiner Bio One Plates (789173-F) using a MultiDrop Combi (Thermofisher Scientific) dispenser and a small sterile cassette. One column was media alone to be used as a :"no cells" control. The plates were then covered with sterilized stainless steel gasketed lids from Kalypsys. After allowing cells to attach for 4 hours, 23 nL of test compound or control (negative control DMSO and positive control 9.2 uM Bortezomib-final) were added from a 1536-well polypropylene compound source plate to each well using a 1536 head pin tool from Kalypsys. Cells were then incubated for 48 hours at 37C, 95% relative humidity and 5% CO2. After 48 hours, plates were removed from the incubator and 3 uL of CellTiter-Glo (Promega) was added using an Aurora Flying Reagent Dispenser Bioraptor. Plates were incubated at room temperature for 10 minutes prior to reading the luminescence on the Viewlux (PerkinElmer). The relative luciferase units are used to calculate the percent activity using the activity of DMSO in the cells and no cells columns for normalization of no inhibition and full inhibition respectively.
# Potency means the concentration at half of the fitted maximal effect.
SMILES,Potency,viability (percent of control)
CC1CC(C)C(=O)C(C(O)CC2CC(=O)NC(=O)C2)C1 (stereo not drawn),"inconclusive: 0.303 µM [cytotoxic, full curve]",–
CNC(=O)N1N=C(c2ccc(N)cc2)c2cc3c(cc2CC1C)OCO3 (stereo not drawn),"inconclusive: 1.05 µM [cytotoxic, partial curve, poor fit]",–
CNC(=O)c1ccc(N2C(=S)N(c3ccc(C#N)c(C(F)(F)F)c3)C(=O)C23CCC3)cc1F,"inconclusive: 26.4 µM [cytotoxic, partial curve, poor fit]",–
CC(C)[C@]12O[C@H]1[C@@H]1O[C@]13[C@]1(O[C@H]1C[C@H]1C4=C(CC[C@@]13C)C(=O)OC4)[C@@H]2O,"inconclusive: 0.0132 µM [cytotoxic, full curve]",–
Cc1sc2c(c1C)C(c1ccc(Cl)cc1)=N[C@@H](CC(=O)OC(C)(C)C)c1nnc(C)n1-2,"inconclusive: 8.33 µM [cytotoxic, partial curve, poor fit]",–
Cc1c(C(=O)Nc2cccc(C(F)(F)F)c2)cc(-c2ccccc2)n1CCCN1CCOCC1,"inconclusive: 20.9 µM [cytotoxic, partial curve, poor fit]",–
C[C@@H]1[C@@H](C(=O)C[C@H]2O[C@@H]3O[C@]4(C)CC[C@@H]5[C@H](C)CC[C@@H]([C@H]2C)[C@@]35OO4)O[C@@H]2O[C@]3(C)CC[C@H]4[C@H](C)CC[C@@H]1[C@@]24OO3,"inconclusive: 0.0935 µM [cytotoxic, partial curve, poor fit]",–
Cn1c(CCCC(=O)O)nc2cc(N(CCCl)CCCl)ccc21,–,inactive: 92.6%
CN(C)CCN(C)CCc1ccc(Cl)c(Cl)c1,"inconclusive: 13.2 µM [cytotoxic, partial curve, poor fit]",–
COC1(CS(=O)c2ccccc2)CCN(CCc2c[nH]c3ccc(F)cc23)CC1 (stereo not drawn),"inconclusive: 20.9 µM [cytotoxic, partial curve, poor fit]",–
CCCCC/C=C\C/C=C\C/C=C\C/C=C\CCCC(=O)NC1CC1,–,inactive: 100%
C[C@]12CCC(=O)C(O)=C1CC[C@@H]1[C@@H]2CC[C@]2(C)C(=O)CC[C@@H]12,–,inactive: 113%
O=C(O)C(=O)c1cn(Cc2ccccc2)c2ccc(-c3ccc(OC(F)(F)F)cc3)cc12,"inconclusive: 6.62 µM [cytotoxic, partial curve, poor fit]",–

# Some of the entries so far, bar-delimited:
SMILES | Potency | viability (percent of control)
Cc1sc2c(c1C)C(c1ccc(Cl)cc1)=N[C@@H](CC(=O)OC(C)(C)C)c1nnc(C)n1-2 | inconclusive: 8.33 µM [cytotoxic, partial curve, poor fit] | –
Cc1c(C(=O)Nc2cccc(C(F)(F)F)c2)cc(-c2ccccc2)n1CCCN1CCOCC1 | inconclusive: 20.9 µM [cytotoxic, partial curve, poor fit] | –
